In the assay the target is T1, ADAMTS13-BirA* fusion protein (UniProt Q76LX8).
T1 sequence: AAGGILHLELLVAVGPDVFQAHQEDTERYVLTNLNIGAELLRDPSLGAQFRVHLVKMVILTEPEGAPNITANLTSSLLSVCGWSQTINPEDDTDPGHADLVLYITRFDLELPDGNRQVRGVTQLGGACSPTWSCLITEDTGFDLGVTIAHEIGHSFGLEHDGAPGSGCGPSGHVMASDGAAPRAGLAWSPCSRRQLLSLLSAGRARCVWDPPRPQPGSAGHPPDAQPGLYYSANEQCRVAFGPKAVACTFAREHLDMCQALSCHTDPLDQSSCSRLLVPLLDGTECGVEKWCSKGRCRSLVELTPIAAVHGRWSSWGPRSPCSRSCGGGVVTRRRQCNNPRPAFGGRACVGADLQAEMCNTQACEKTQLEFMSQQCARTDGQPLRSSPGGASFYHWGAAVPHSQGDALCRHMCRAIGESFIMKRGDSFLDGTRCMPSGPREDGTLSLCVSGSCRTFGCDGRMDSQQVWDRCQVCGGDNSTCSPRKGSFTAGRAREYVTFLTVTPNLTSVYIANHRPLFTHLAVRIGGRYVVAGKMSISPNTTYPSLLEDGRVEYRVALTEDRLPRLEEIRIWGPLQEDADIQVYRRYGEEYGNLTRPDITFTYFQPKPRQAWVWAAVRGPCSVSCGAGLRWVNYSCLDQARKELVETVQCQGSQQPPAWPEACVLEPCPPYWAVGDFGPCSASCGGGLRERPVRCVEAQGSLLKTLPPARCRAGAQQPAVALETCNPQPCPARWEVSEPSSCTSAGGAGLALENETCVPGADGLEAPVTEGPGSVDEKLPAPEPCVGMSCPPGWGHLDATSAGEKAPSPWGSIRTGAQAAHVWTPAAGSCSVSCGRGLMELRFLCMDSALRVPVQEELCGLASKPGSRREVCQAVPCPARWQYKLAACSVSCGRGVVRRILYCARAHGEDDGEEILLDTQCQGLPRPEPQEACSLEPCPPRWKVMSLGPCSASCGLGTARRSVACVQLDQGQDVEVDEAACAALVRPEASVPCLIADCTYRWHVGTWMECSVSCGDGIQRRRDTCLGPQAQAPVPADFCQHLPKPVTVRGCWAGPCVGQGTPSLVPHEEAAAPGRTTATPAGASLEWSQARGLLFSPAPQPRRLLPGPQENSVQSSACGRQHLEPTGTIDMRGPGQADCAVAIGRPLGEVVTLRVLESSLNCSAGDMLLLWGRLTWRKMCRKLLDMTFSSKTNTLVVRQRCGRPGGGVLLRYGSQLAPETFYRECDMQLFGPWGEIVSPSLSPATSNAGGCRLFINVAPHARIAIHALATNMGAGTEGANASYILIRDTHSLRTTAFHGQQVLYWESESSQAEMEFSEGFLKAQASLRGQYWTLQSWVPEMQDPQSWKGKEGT
Description: proximity labelling; plasma BioID: 100 nM ADAMTS13-BirA* (controls: BirA*, no protein) in citrated pooled normal plasma, 1 mM ATP every hour, 50 µM biotin, 37 °C, 4 h; streptavidin-agarose pull-down, trypsin digest, LC-MS/MS; 5 independent reactions; only the target purified.

Chains of the proteins cited; added tags and fusions are not shown. Residues count along the entry.
UniProt P04275, residues 764-2813: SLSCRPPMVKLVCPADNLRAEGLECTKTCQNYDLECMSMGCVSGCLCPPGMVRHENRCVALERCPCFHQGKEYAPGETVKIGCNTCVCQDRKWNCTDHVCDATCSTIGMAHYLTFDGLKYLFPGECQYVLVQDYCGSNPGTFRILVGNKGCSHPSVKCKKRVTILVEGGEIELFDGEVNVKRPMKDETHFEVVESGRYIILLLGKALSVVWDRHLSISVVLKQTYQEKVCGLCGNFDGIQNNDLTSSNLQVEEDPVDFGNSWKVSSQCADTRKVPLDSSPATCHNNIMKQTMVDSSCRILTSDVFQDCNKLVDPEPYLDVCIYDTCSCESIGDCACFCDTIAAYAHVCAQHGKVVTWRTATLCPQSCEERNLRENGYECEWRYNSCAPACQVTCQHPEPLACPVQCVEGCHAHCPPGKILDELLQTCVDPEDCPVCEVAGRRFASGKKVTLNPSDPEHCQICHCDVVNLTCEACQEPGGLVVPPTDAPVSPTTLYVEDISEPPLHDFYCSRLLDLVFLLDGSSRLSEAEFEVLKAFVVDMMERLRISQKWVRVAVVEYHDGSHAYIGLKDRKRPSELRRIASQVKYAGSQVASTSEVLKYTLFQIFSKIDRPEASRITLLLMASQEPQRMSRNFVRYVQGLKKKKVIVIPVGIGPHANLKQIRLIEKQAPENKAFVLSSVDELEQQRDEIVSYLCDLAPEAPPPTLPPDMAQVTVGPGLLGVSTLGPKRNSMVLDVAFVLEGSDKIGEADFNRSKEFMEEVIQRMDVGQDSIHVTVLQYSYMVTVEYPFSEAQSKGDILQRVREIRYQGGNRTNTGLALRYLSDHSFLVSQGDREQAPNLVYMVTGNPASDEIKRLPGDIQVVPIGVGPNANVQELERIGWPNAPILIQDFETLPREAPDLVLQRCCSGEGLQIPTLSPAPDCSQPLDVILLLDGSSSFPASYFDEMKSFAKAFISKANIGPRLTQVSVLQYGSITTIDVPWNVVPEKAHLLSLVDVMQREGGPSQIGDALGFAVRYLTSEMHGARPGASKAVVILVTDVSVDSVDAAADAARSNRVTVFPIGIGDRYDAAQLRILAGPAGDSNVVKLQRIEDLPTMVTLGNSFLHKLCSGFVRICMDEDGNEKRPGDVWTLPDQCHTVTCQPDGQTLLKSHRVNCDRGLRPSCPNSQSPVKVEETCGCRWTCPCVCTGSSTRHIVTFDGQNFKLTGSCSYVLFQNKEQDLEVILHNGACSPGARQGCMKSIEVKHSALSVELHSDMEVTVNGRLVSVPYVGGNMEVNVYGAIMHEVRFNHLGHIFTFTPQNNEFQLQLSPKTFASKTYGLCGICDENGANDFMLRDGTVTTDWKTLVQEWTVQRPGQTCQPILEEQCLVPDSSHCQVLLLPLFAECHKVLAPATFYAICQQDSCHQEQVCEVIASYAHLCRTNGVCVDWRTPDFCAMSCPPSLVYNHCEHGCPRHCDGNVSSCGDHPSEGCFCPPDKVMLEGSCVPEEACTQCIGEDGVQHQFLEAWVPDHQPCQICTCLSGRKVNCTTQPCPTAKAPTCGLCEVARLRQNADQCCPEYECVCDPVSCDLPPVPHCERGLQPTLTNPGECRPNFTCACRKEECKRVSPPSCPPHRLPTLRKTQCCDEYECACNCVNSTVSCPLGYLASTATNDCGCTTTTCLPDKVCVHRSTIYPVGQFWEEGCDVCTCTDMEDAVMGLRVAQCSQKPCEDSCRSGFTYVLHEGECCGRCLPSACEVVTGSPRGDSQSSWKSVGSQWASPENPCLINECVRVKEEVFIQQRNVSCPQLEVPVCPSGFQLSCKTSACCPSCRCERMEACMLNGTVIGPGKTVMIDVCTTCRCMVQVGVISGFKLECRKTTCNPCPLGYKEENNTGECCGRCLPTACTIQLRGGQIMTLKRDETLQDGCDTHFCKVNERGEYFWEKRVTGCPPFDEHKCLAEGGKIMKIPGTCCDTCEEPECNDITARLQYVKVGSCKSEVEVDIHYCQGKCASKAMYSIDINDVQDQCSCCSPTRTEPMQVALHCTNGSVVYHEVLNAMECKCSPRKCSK

These are yes or no findings as the source states them, for the method shown. Binding seen in cells or lysates may run through a third protein. Here binding means that the protein was enriched with, or labelled near, the bait; the list need not be complete. Sequences can lack the tags named with a protein.

For the substance “Plasminogen (in plasma) (human (endogenous in plasma))”, the binding result is “binds”.

As to “Von Willebrand Factor (in plasma) (from UniProt P04275 764-2813)”, the binding result is given as “binds”.

The record behind these values is paper PMC11032339.
